The text below walks through data of article PMC12083247.

By UniProt entry, the sequences of proteins in these tests, tags left out. Where a name states a change or a piece, a line headed by the entry shows the natural chain unless it says otherwise. Residues count along the entry.
UniProt P07355: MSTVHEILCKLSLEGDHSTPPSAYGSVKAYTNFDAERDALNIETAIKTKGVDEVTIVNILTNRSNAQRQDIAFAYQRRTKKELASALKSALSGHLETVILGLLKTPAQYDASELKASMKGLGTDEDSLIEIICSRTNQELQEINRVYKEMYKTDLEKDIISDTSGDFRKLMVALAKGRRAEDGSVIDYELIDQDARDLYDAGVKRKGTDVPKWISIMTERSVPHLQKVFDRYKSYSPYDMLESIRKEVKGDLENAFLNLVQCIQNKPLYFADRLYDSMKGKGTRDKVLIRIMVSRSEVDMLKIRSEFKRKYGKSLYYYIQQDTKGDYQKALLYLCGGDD
ANXA2(18-339)-HA: residues 18-339 of P07355
porcine calpain-1–treated annexin A2-HaloTag: residues 19-339 of P07355
UniProt P07384: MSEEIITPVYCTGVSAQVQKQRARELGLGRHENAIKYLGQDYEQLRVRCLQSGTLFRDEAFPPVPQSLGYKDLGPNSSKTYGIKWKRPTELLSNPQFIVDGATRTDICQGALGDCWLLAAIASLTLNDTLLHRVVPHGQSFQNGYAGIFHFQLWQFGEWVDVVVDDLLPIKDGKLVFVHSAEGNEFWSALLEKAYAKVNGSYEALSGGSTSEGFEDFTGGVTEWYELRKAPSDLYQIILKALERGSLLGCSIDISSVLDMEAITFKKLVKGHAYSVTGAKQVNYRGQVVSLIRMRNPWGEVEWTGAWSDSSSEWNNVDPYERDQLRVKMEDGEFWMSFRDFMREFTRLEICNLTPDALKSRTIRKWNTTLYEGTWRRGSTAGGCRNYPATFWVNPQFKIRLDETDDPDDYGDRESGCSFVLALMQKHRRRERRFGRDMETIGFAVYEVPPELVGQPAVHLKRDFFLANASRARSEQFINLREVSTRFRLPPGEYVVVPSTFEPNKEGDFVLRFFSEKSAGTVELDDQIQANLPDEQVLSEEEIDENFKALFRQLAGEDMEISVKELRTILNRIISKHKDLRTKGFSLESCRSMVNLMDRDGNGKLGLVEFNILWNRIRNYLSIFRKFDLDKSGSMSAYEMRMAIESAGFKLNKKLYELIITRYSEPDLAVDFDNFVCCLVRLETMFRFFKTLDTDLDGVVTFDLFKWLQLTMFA
UniProt P60903: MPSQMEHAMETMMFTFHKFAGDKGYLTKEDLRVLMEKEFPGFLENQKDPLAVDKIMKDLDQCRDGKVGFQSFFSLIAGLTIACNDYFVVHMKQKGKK

The target of one test is ANXA2(18-339)-HA (UniProt P07355). Briefly: co-IP; anti-HA immunoprecipitation from lysates of HCT116 cells expressing HA-tagged annexin A2 constructs; immunoblot. A general note: In western blotting, separated proteins are transferred to a membrane and probed.
The target of another test is ANXA2[P20D, P21D]-HA (UniProt P07355). The description is as above.
The target of another test is WT ANXA2-HA (UniProt P07355). Described as above.
A further test has as its target annexin A2-HaloTag (UniProt P07355). Briefly: pull-down; HaloTag bait on chloroalkane-coated beads; Sypro Ruby total protein stain and gel excision-mass spectrometry; source of the prey not stated; only the target purified.
The target of test [1] is porcine calpain-1–treated annexin A2-HaloTag (UniProt P07355). Described as above.
Test [2] has as its target annexin A2 (untagged, recombinant) (UniProt P07355). Briefly: SEC; E. coli lysates of ANXA2 and S100A10 mixed 1:1, 2 mM CaCl2, co-purified by pelleting with membranes and ATP elution, then Superdex-200 in TBS. On the technique in general: Size exclusion chromatography separates by hydrodynamic size, large species first.
The target in test [3] is CAPN1[C115S]-3xFlag-6xHis (human) (UniProt P07384). Briefly: pull-down; His-tag purification (HisPure beads, TBS, 300 mM imidazole elution) of large subunit coexpressed with CAPNS1(86–268) in E. coli; Coomassie gel.
The target in test [4] is CAPN1[C115S]-3xFlag-6xHis in complex with CAPNS1(86–268) (UniProt P07384). In words: pull-down; same substrate trapping; bound proteins eluted with TBS + 5 mM EGTA, then SDS (Laemmli) elution; immunoblot; only the target purified.
Test [5] shares this target. Briefly: pull-down; substrate trapping: 3xFlag baits (6 μM) on anti-Flag agarose; HCT116 cytosol with 2 mM CaCl2 and E64, 2 h at 4°C; washes TBS + 1 mM CaCl2 + 0.01% Tween-20; immunoblot of elutions; only the target purified.

No constants are given. Whether binding was seen depends on the method and setting. For some of these results: In cells and extracts the contact can be indirect. Some entries that bind do so weakly or less than the wild type.

Regarding S100A10 (from UniProt P60903 1-97), the binding result with ANXA2(18-339)-HA is on record as “no binding”; with ANXA2[P20D, P21D]-HA, “binds”; in the test with WT ANXA2-HA, “binds”; with annexin A2-HaloTag, “binds”; in test [1], “no binding”.
In the case of annexin A2 (from UniProt P07355 1-339), the binding entry in [1] is reported as “no binding”.
Turning to “S100A10 (recombinant) (from UniProt P60903 1-97)”, the binding result in test [2] is “binds”.

B1: CAPNS1(86–268) (domain or fragment, UniProt P04632 86-268)
chain: HYSNIEANESEEVRQFRRLFAQLAGDDMEVSATELMNILNKVVTRHPDLKTDGFGIDTCRSMVAVMDSDTTGKLGFEEFKYLWNNIKRWQAIYKQFDTDRSGTICSSELPGAFEAAGFHLNEHLYNMIIRRYSDESGNMDFDNFISCLVRLDAMFRAFKSLDKDGTGQIQVNIQEWLQLTMYS
As for B1, in test [3], the binding entry was “binds”.

B2: annexin A6 (protein, UniProt P08133 1-673)
chain: MAKPAQGAKYRGSIHDFPGFDPNQDAEALYTAMKGFGSDKEAILDIITSRSNRQRQEVCQSYKSLYGKDLIADLKYELTGKFERLIVGLMRPPAYCDAKEIKDAISGIGTDEKCLIEILASRTNEQMHQLVAAYKDAYERDLEADIIGDTSGHFQKMLVVLLQGTREEDDVVSEDLVQQDVQDLYEAGELKWGTDEAQFIYILGNRSKQHLRLVFDEYLKTTGKPIEASIRGELSGDFEKLMLAVVKCIRSTPEYFAERLFKAMKGLGTRDNTLIRIMVSRSELDMLDIREIFRTKYEKSLYSMIKNDTSGEYKKTLLKLSGGDDDAAGQFFPEAAQVAYQMWELSAVARVELKGTVRPANDFNPDADAKALRKAMKGLGTDEDTIIDIITHRSNVQRQQIRQTFKSHFGRDLMTDLKSEISGDLARLILGLMMPPAHYDAKQLKKAMEGAGTDEKALIEILATRTNAEIRAINEAYKEDYHKSLEDALSSDTSGHFRRILISLATGHREEGGENLDQAREDAQVAAEILEIADTPSGDKTSLETRFMTILCTRSYPHLRRVFQEFIKMTNYDVEHTIKKEMSGDVRDAFVAIVQSVKNKPLFFADKLYKSMKGAGTDEKTLTRIMVSRSEIDLLNIRREFIEKYDKSLHQAIEGDTSGDFLKALLALCGGED
For B2, the binding entry in test [4] is “no binding (condition: with 5 mM EGTA)”; in test [5] it was “binds”.
